Patent US20190062425A1 (BETH ISRAEL DEACONESS MEDICAL CENTER, published 2019)
Results are given in words; binding and its absence hold for the method and conditions named. Some entries that bind do so weakly or less than the wild type.

How the values were obtained:
[1] = target: T1, human transmembrane-4 L six family member-1 (TM4SF1), full-length (human) (UniProt P30408); assay: immunocytochemistry
T1 sequence (N-glycosylated at N129 and N159 (ECL2), looked up): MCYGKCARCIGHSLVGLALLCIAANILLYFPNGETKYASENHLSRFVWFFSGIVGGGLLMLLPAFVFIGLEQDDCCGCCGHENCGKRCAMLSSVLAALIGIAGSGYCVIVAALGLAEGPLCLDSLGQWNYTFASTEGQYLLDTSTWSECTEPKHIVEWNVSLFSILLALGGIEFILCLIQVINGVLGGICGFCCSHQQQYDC

[2] = target: T1, human transmembrane-4 L six family member-1 (TM4SF1), full-length (human); assay: immunostaining of HUVEC
[3] = target: T1, human transmembrane-4 L six family member-1 (TM4SF1), full-length (human); assay: immunoblot of HUVEC extracts
[4] = target: T1, human transmembrane-4 L six family member-1 (TM4SF1), full-length (human); assay: epitope mapping by immunocytochemistry
[5] = target: T1, human transmembrane-4 L six family member-1 (TM4SF1), full-length (human); assay: immunofluorescence of human tissue sections
[6] = target: T1, human transmembrane-4 L six family member-1 (TM4SF1), full-length (human); assay: immunocytochemistry on HEMn cells transduced with FL-TM4SF1

Measured: binding

B1: 8G4 antibody (anti-TM4SF1 mouse monoclonal antibody produced by hybridoma mouse cell line 8G4-5-13-13F, PTA-120523) (antibody, V domains shown)
VH: EVILVESGGGLVKPGGSLKLSCAASGFTFSSFAMSWVRQTPEKRLEWVATISSGSIYIYYTDGVKGRFTISRDNAKNTVHLQMSSLRSEDTAMYYCARRGIYYGYDGYAMDYWGQGTSVTVSS
VL: AVVMTQTPLSLPVSLGDQASISCRSSQSLVHSNGNTYLHWYMQKPGQSPKVLIYKVSNRFSGVPDRFSGSGSGTDFTLKISRVEADDLGIYFCSQSTHIPLAFGAGTKLELK
notes: Mouse monoclonal antibody from a hybridoma; both have the length of variable domains; also called anti-TM4SF1 antibody 8G4
binds: [1] | [2] | [3] | [4] | [5] | [6]
